# According to PubChem BioAssay AID493014 (National Center for Advancing Translational Sciences (NCATS), 2011):
# In all, about 340,000 compounds went through this assay and about 170 (0.05%) were called active. The inconclusive results got no clear call from the source; some entries with a clear call stand among them for comparison. The call rests on the fitted dose curve; in most records, active means well fitted inhibition curve with a large enough effect in the signal ratio, with a control signal flat (not every such curve was filed as active); inconclusive means small, poorly fitted or top-dose-only effect, or effect the other way, or a change in a side signal; inactive means flat fitted curve, though single readings scatter; the % refers to the signal ratio. Where the call is inconclusive, the potency comes from a doubtful curve fit.
# Assay: qHTS Assay to Find Inhibitors of Chronic Active B-Cell Receptor Signaling;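 on activity change, negative = inhibition: plate controls were basal doxycycline-induced cells for no effect and cells given 10 µM MG132 for full effect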
# Conditions: ABC-DLBCL IkBa-CBG/CBR reporter, luminescence ratio (green luciferase fused to IkBa over red control in TMD8 lymphoma cells), 4 h; activity change, negative = inhibition: at 46.1 µM (top of the series)
# Summary of the method: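 TMD8 ABC-DLBCL cells carrying doxycycline-inducible green luciferase fused to IkappaBalpha plus unfused red luciferase were exposed to compounds (up to 46 uM) for 4 hrs at 37C. Activity came from the overlap-corrected green/red luminescence ratio.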
# Potency means the concentration at half of the fitted maximal effect.
Structure (SMILES),"activity change, negative = inhibition",Potency
CCN(CC)c1nc(C(F)(F)F)nc2c1nnn2Cc1ccccc1,inactive: 13.4%,–
O=c1cc(-c2ccc3c(c2)OCO3)oc2ccccc12,inconclusive: 13.5%,–
COc1cccc(C(=O)Nn2cnnc2)c1OC,inactive: -1.08%,–
CC(C(=O)N=Nc1c(O)n(C)c2ccc(Br)cc12)n1cnc2ccccc2c1=O (stereo not given),inconclusive: -2.76%,–
COc1ccc(-c2cc(C(F)F)n3ncc(C(=O)N4CCSCC4)c3n2)cc1,–,"inconclusive: 18.4 µM [falling, partial curve, poor fit]"
O=[N+]([O-])c1ccc(-c2ccc(S(=O)(=O)N3CCOCC3)cc2)cc1,inconclusive: 5.38%,–
Cc1ccccc1OCC(=O)N(Cc1ccc(N(C)C)cc1)C1CCS(=O)(=O)C1 (stereo not given),–,"inconclusive: 22.4 µM [falling, single point]"
CC(C)(C)OC(=O)NCCCCCc1cn([C@@H](CO)C(=O)NCCCCCCCCCCC(=O)N2CCN(C(=O)OC(C)(C)C)CC2)nn1,inconclusive: 19.7%,–
C=CCOc1ccc(/C=C/C(=O)OCC(=O)N(C)CC(=O)Nc2ccccc2Cl)cc1,inconclusive: 1.94%,–
O=C(C[n+]1ccc2ccccc2c1)c1cccc2ccccc12,–,"inconclusive: 2.24 µM [activator, partial curve]"
O=c1c(-c2ccc(O)cc2)coc2cc(OC3OC(CO)C(O)C(O)C3O)ccc12 (stereo not given),inactive: 26.5%,–
O=C(Nc1ccc(Cl)c(Cl)c1)c1ccncc1,–,"inconclusive: 29.1 µM [falling, single point]"
CCn1c(Cc2ccccc2)nnc1SCc1cccc(C(=O)O)c1,inconclusive: 1.12%,–
CCCCCOC(=O)C1=C(C)Nc2nnnn2C1c1ccccc1Cl (stereo not given),inactive: 5.78%,–
Cc1cccc(Nc2ncc3c(n2)CC(C)CC3=O)c1 (stereo not given),–,"inconclusive: 20.6 µM [falling, partial curve]"
O=C(NC1CCN(Cc2ccccc2)CC1)c1ccc(Cn2c(=S)[nH]c3ccc(N4CCOCC4)cc3c2=O)cc1,–,"inconclusive: 20 µM [falling, partial curve]"
Cc1ccc(C)c(N2C(=O)CC(N3CCN(Cc4ccc5c(c4)OCO5)CC3)C2=O)c1 (stereo not given),inconclusive: 8.44%,–
CCOC(=O)N/N=C\c1ccc(C)s1,inconclusive: -17.9%,–
O=C(Nc1nc(-c2cccnc2)cs1)c1ccccc1[N+](=O)[O-],inconclusive: -19.9%,–
CSc1ncccc1C(=O)NCCc1ccc(Cl)cc1,–,"inconclusive: 11.2 µM [falling, partial curve, poor fit]"
COc1cc(OC)c2c(O)c3c(c(-c4c5c(c(O)c6c(OC)cc(OC)cc46)CO[C@@H](C)[C@H]5O)c2c1)[C@H](O)[C@H](C)OC3,–,"inconclusive: 35.5 µM [rising, partial curve, poor fit]"
COc1cccc(/C(C)=N/N=C(\C)c2cccc(OC)c2)c1,inconclusive: 2.88%,–
O=C(CCS(=O)(=O)c1ccccc1)Nc1ncc([N+](=O)[O-])s1,–,"inconclusive: 22.4 µM [falling, single point]"
CC(=O)Oc1ccc(-c2cccc(C(=O)OCC(=O)N(C)c3ccccc3)c2)cc1,inconclusive: 6.49%,–
O=C(Nc1c(C(=O)O)oc2ccccc12)c1ccc(C(F)(F)F)cc1,–,"inconclusive: 35.5 µM [rising, single point]"

# Two records picked at random from the list so far, as already listed:
Structure (SMILES),"activity change, negative = inhibition",Potency
COc1cccc(/C(C)=N/N=C(\C)c2cccc(OC)c2)c1,inconclusive: 2.88%,–
CC(C(=O)N=Nc1c(O)n(C)c2ccc(Br)cc12)n1cnc2ccccc2c1=O (stereo not given),inconclusive: -2.76%,–

# In the list so far, these have a CF3 group.
Structure (SMILES),"activity change, negative = inhibition",Potency
CCN(CC)c1nc(C(F)(F)F)nc2c1nnn2Cc1ccccc1,inactive: 13.4%,–
O=C(Nc1c(C(=O)O)oc2ccccc12)c1ccc(C(F)(F)F)cc1,–,"inconclusive: 35.5 µM [rising, single point]"

# Remaining list, next part

Structure (SMILES),"activity change, negative = inhibition",Potency
CCN(c1ccccc1)S(=O)(=O)c1ccc(C(=O)N(CCCN(C)C)c2nc3cc4c(cc3s2)OCO4)cc1,inconclusive: 0.424%,–
O=C(CN1C(=O)NC2(CCc3ccccc32)C1=O)Nc1ccc(Br)cc1F (stereo not given),inactive: 0.0682%,–
Fc1ccccc1CNC(=S)NCc1ccc(Cl)cc1,inactive: 8.75%,–
COc1cccc(NC(=O)CN2C(=O)CSc3nc(C)cc(C)c32)c1,inconclusive: -49.4%,–
Cc1ccc(NC(=O)c2ccc3nc[nH]c3c2)cc1C,inconclusive: -27.7%,–
NS(=O)(=O)c1ccc(CNC(=O)C(c2ccccc2)c2ccccc2)cc1,inconclusive: -0.374%,–
CCC(=O)Nc1nc(-c2ccccc2)nc(SC)c1C(C)=O,inconclusive: 10.5%,–
O=[N+]([O-])c1ccc(N2CCN(C(=S)Nc3cccc(F)c3)CC2)cc1,inconclusive: 5.3%,–
CCCCC[C@H](O)/C=C/C1=C(CCCCCCC(=O)O)C(=O)CC1,–,"inconclusive: 3.98 µM [falling, full curve]"
O=C(NCCc1ccc2c(c1)OCCO2)c1ccc(F)cc1,–,"inconclusive: 6.51 µM [falling, partial curve]"
COc1ccc(NC(=O)c2c(NCc3sccc3C)sc3c2CCCCC3)c(OC)c1,–,"inconclusive: 35.5 µM [falling, single point]"
O=C(c1cnn(C(=O)c2ccc(O)cc2)c1)c1ccccc1O,–,"inconclusive: 0.398 µM [falling, partial curve, poor fit]"
CCOc1ccc(CCNC(=O)c2ccc(CS(=O)Cc3cccc(Cl)c3)o2)cc1 (stereo not given),inactive: 4.83%,–
CS(=O)(=O)c1ccc2nc(NC(=O)Nc3ccccc3F)sc2c1,inconclusive: -4.73%,–
O=C(Nc1ccc(OC(F)(F)F)cc1)Oc1ccccc1N1CCOCC1,–,"inconclusive: 35.5 µM [falling, single point]"
COc1cccc(-n2c(C)c3c(OC)cccc(=O)c3c2C)c1,inconclusive: 21.9%,–
O=C(NCc1cccnc1)/C(=C\c1ccc(-c2cccc(Cl)c2)o1)S(=O)(=O)c1ccccc1,inconclusive: 29.5%,–
Cc1cc(O)c(/C=N/Nc2cccc(Cl)c2)c(=O)o1,–,"inconclusive: 3.16 µM [rising, full curve, poor fit]"
CCOC(=O)/C(C#N)=C1\Nc2ccccc2N=C1N(CC(C)C)CC(C)C,–,"inconclusive: 3.26 µM [rising, full curve, poor fit]"
COC(=O)c1c(C)[nH]c(C(=O)C(C)OC(=O)c2c(C)noc2C)c1C (stereo not given),inconclusive: 0.744%,–
O=C(Nc1ccc(Nc2ccccc2)cc1)Nc1ccccc1Cl,–,"inconclusive: 15.8 µM [falling, partial curve, poor fit]"
COc1ccccc1OCc1cc(-c2ccccc2)no1,–,"inconclusive: 35.5 µM [rising, single point]"
CCOC(=O)C(C(=O)OCC)C(Nc1ccc(Br)cc1)c1ccccc1 (stereo not given),–,"inconclusive: 10 µM [falling, partial curve, poor fit]"
CC(=O)N(CCCCN1C(=O)c2ccccc2C1=O)c1ccc(C)cc1,inconclusive: -7.87%,–
Cc1ccc(C=Nc2cccnc2N)cc1,inconclusive: 6.72%,–

Structure (SMILES),"activity change, negative = inhibition",Potency
CCOC(=O)CC(=O)Nc1nc2ccccc2s1,inconclusive: 1.65%,–
CC(=O)c1ccc(N(CC(=O)NC2CCS(=O)(=O)C2)S(=O)(=O)c2ccc(C)cc2)cc1 (stereo not given),inconclusive: -0.851%,–
CCOc1ccc2[nH]c(=O)c(C(c3nnnn3C3CCCCC3)N3CCN(CC)CC3)cc2c1 (stereo not given),inactive: 0.809%,–
Cc1cc(NC(=O)c2cccc(Cl)c2)n[nH]1,–,"inconclusive: 16.4 µM [falling, single point]"
CCCc1c(-c2ccc(O)cc2)nn(-c2ccc(O)cc2)c1-c1ccc(O)cc1,–,"inconclusive: 15.8 µM [falling, single point]"
COc1ccc(C(=O)COC(=O)c2ccco2)cc1,inconclusive: 1.57%,–
Clc1ccccc1OCCCCN1CCCCC1,inactive: 3.39%,–
CCOC(=O)c1nnc(-c2ccccc2)nc1NC,–,"inconclusive: 11.2 µM [rising, partial curve, poor fit]"
COc1ccc(C2=NN(CN3C(=O)C(=O)c4ccccc43)C(c3cccc([N+](=O)[O-])c3)C2)cc1 (stereo not given),inactive: -2.33%,–
COc1ccccc1NS(=O)(=O)c1cc(C(=O)N2CCCC2)ccc1F,inconclusive: -6.95%,–
CC12CN3CC(C)(CN(C1)C3c1ccc3ccccc3c1O)C2=O (stereo not given),–,"inconclusive: 17.8 µM [falling, partial curve, poor fit]"
COc1ccccc1OCC(=O)Nc1ccccc1C(=O)NCc1ccco1,inconclusive: 11.9%,–
CC(C)(C)C1CCC(=NNC(=O)c2ccco2)CC1 (stereo not given),–,"inconclusive: 28.2 µM [falling, single point]"
COc1cccc(NC(=O)Cc2ccc(C)cc2)c1,inconclusive: -8.45%,–
O=C(COc1ccccc1Cl)N(Cc1cccs1)C1CCS(=O)(=O)C1 (stereo not given),–,"inconclusive: 1.78 µM [falling, full curve, poor fit]"
Cc1onc(-c2ccccc2)c1C(=O)Nc1cccnc1,inconclusive: -4.21%,–
Cc1cc(NC(=O)CSc2nnc(C3CC3)n2-c2ccccc2)no1,inconclusive: 2.18%,–
COCC(=O)OC/C(O)=C(\C#N)c1nc2ccccc2[nH]1,inconclusive: 17.4%,–
CCCC/C(C)=N/NC(=O)Nc1ccccc1,–,"inconclusive: 35.5 µM [falling, single point]"
Oc1c(Cl)cc(Cl)c(Cl)c1Cc1c(O)c(Cl)cc(Cl)c1Cl,–,"inconclusive: 0.398 µM [rising, full curve, poor fit]"
O=C(CSc1nnc(CCCN2C(=O)c3cccc4cccc(c34)C2=O)n1-c1ccccc1)NCCCO,inconclusive: 0.515%,–
Cc1ccc(C)c(Cn2nnc3c(=O)[nH]c(C4CCN(C(=O)c5ccco5)CC4)nc32)c1,inactive: 9.2%,–
Cc1nc2cc(C(=O)OCC(=O)NC(C)C(C)C)ccc2n1-c1ccccc1 (stereo not given),inconclusive: -0.027%,–
COc1cc(OC)c(OC)cc1/C=N/NC(=S)NCCN1CCOCC1,–,"inconclusive: 2.24 µM [falling, full curve]"
CC(C)(CC(=O)O)CC(=O)N1CCN(c2nc3cc(Cl)ccc3s2)CC1,inconclusive: -1.29%,–

# Nothing new here: entries from further up.
Structure (SMILES),"activity change, negative = inhibition",Potency
CCOC(=O)N/N=C\c1ccc(C)s1,inconclusive: -17.9%,–
O=C(Nc1nc(-c2cccnc2)cs1)c1ccccc1[N+](=O)[O-],inconclusive: -19.9%,–
